Values from PubChem BioAssay AID1259424 (University of Nebraska Medical Center, 2018)

Screen: 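Seek colon cancer survival genes behaving like KSR1, using a six-gene signature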 (primary screen)
Cell system: human HCT116 colon cancer cells
Reagent: siRNA pool against human genes, 50 nM
Measured: 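Six signature mRNAs by branched-DNA multiplex assay, scaled to two housekeeping genes and non-targeting median, log2; matched to mean KSR1 knockdown profile by Pearson correlation and euclidean distance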
Scale: mean correlation with KSR1 profile and KSR1 correlation: higher = expression change more like KSR1 knockdown; mean distance from KSR1 profile: higher = expression change less like KSR1 knockdown
The whole screen tested about 14,000 reagents; below is an unselected part. 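Higher correlation or smaller distance means closer resemblance to KSR1 loss; control wells, including KSR1 knockdowns, recur on many plates.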 Further read-outs or replicates are left out here. Reagent sequences are not shown. Not stated in the record: the time to read-out.

gene | mean correlation with KSR1 profile | mean distance from KSR1 profile | KSR1 correlation, replicate 1
CTNNA2 | -0.207 | 1.26 | 0.151
MSC | 0.16 | 1.63 | 0.276
LTBR | -0.14 | 1.43 | -0.207
ZNF382 | 0.856 | 2.24 | 0.72
ADAM20 | -0.255 | 2.2 | -0.204
CDK12 | -0.106 | 2.16 | 0.0228
OR5I1 | 0.322 | 2.8 | 0.358
ANXA2P1 | -0.559 | 3.36 | -0.616
LTN1 | -0.503 | 2.58 | -0.249
RGS12 | 0.948 | 3.59 | 0.937
PIP5K1B | 0.234 | 1.95 | 0.39
PMEL | -0.586 | 3.88 | -0.559
DHX15 | -0.632 | 2.26 | -0.649
DCTN5 | 0.467 | 1.96 | 0.502
PCID2 | -0.34 | 2.14 | -0.581
SPX | 0.601 | 1.34 | 0.623
MSANTD4 | 0.384 | 1.8 | 0.385
GNL2 | 0.273 | 4.96 | 0.0765
ASH2L | -0.377 | 2.18 | -0.143
OR3A2 | 0.803 | 1.68 | 0.818
RAB40C | 0.445 | 1.94 | 0.487
MCM10 | -0.275 | 3.41 | 0.0252
USP36 | 0.0724 | 1.66 | 0.175
HAMP | -0.204 | 3.82 | -0.205
PAX5 | 0.833 | 0.838 | 0.897
AGTPBP1 | -0.0871 | 1.5 | 0.283
PTGES3 | -0.0205 | 1.98 | -0.14
PMS2P3 | -0.328 | 2.02 | -0.152
CMAS | 0.118 | 2.43 | -0.161
LPAR6 | 0.327 | 3.91 | 0.348
TP53AIP1 | 0.218 | 1.35 | 0.122
PALM | 0.509 | 0.695 | 0.6
SEPHS1 | -0.114 | 3.8 | 0.0324
CRIPTO | -0.17 | 1.83 | 0.257

Just “mean distance from KSR1 profile” (6 entries from above):
DCTN5 = 1.96
PCID2 = 2.14
SPX = 1.34
MSANTD4 = 1.8
GNL2 = 4.96
ASH2L = 2.18
